Results published in patent publication US20230235090A1.

Legend:
[1] = target: cynomolgus monkey 4-1BB (cynomolgus monkey); experiment: FACS on CHO-K1-cyno 4-1BB cells
[2] = target: cynomolgus monkey 4-1BB (cynomolgus monkey); experiment: FACS, CHO-K1/cyno 4-1BB cells [B]

B1: PR001767 (antibody, human IgG1, V domains shown)
VH: EVQLVETGGGLIQPGGSLRLSCAASGFTVSSNYMSWVRQAPGKGLEWVSVIYSDGSTYYADSVKGRFTISRDNSKNTLYLQMNSLRAEDTAVYYCARDRYYGSGNYPTAYYGMDVRGQGTTVTVSS
binding [1]: binds

B2: PR001764 (antibody, human IgG1, V domains shown)
VH: EVQLLESGGGLVQPGGSLRLSCAASGFTFSSYAMSWVRQAPEKGLEWVSAISGGGGSTYYADSVKGRFTISRDNSKNTLYLQMDSLKAEDTAVYYCAKEGTTETDDYHYNMDVWGQGTTVTVSS
binding [1]: binds

B3: PR001833 (antibody, human IgG1, V domains shown)
VH: B2 VH with A50S, G54S, Y59F, D84N, K87R, Y95F, T101A, Y109F, M111T
binding [1]: binds

B7: PR001758 (antibody, human IgG1, V domains shown)
VH: EVQLLESGGGLVQLGGSLRLSCAASGFTFSRYAMTWVRQAPEKGLEWVSSISGSGDDTYYGDSVKGRFTISRDNSQNTVYLQMNSLRAEDTAVYFCAKEKAGTTGDYYYNVDVWGQGTTVTVSS
binding [1]: binds

B8: PR001781 (antibody, human IgG1, V domains shown)
VH: B7 VH with R31S, D56G, D57N, G61A, Q76K, V79L, F95Y, K100R, A101T
binding [1]: binds

B9: PR001763 (antibody, human IgG1, V domains shown)
VH: EVQLLESGGGLVQPGGSLRLSCTASGFTFSNYAMSWVRQAPEKGLEWVSSISGSGGSTFYADSVKGRFTISRDNSKNTLYLQMNRLTAEDTAVYYCAKEGSNGTDDYHYDIDVWGQGTTVTVSS
binding [1]: binds | binding [2]: binds

B10: PR001774 (antibody, human IgG1, V domains shown)
VH: EVQLVESGGGLVQPGGSLRLSCAASGFTFSSFAMTWVRQAPEKGLEWVSTISGSGDTTYYADSVKGRFTISRDSSKNTLYLQMNSLRAEDSAVYFCAKEATAMASDYYYGVDVWGQGTTVTVSS
binding [1]: binds

B11: PR001780 (antibody, human IgG1, V domains shown)
VH: B10 VH with V5L, V12I, E42G, T57N, S74N, S91T, A100D, M103V, G110N, V111I
binding [1]: binds

The remaining lines, values ahead:

binding [1]: binds
B4: PR001838 (antibody, human IgG1, V domains shown)
VH: EVQLLESGGGLVQPGGSLRLSCAASGFTFSNYAMSWFRQPPETGLKWVSSIDGSGGDTYYADSVKGRFTISRDNSKNTLYLQMNSLRAEDTAVYYCAKEGSHGTDDSHYDVDVWGQGTTVTVSS

binding [1]: binds
B5: PR007381 (antibody, human IgG1, V domains shown)
VH: B4 VH with F37V, P40A, E42G, T43K, K46E, G53A

binding [1]: binds
B6: PR004469 (antibody, human IgG1, V domains shown)
VH: B4 VH with G53A

binding [1]: binds
B12: PR001842 (antibody, human IgG1, V domains shown)
VH: EVQLLESGGGLVQPGGSLRLSCAASGFTFSSYAMSWGRQAPGKGLEWVSAISGSGGSTYYADSVKGRFTISRDNSKNTLYLHMNSLRAEDTAVYYCAKEKVATTGDYYYDMDVWGQGTTVTVSS

Changes are numbered by the printed parent chain. Results are given in words; binding and its absence hold for the method and conditions named. A result given as binding can be weak or reduced; the word gives no strength. Each block holds one binder with its values, some of them ahead of it.
